This passage reports log2 fold change results from the supplement of paper PMC10849652.

Sequences of proteins named here, by UniProt entry; tags and fusion partners are left off. A change or cut given only in a name is not applied to a line headed by its entry.
UniProt Q96FQ6: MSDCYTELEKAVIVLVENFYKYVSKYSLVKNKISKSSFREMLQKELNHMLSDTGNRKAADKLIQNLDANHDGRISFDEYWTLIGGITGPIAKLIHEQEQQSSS
UniProt Q9NPB0: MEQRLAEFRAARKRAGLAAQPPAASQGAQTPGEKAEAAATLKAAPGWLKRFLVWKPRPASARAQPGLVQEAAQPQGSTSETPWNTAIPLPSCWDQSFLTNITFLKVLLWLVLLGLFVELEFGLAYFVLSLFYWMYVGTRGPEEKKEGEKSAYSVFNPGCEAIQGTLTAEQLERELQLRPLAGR
UniProt P29034: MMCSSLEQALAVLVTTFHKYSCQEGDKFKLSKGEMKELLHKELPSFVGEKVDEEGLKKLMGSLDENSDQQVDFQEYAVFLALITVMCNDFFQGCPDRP
UniProt O00560: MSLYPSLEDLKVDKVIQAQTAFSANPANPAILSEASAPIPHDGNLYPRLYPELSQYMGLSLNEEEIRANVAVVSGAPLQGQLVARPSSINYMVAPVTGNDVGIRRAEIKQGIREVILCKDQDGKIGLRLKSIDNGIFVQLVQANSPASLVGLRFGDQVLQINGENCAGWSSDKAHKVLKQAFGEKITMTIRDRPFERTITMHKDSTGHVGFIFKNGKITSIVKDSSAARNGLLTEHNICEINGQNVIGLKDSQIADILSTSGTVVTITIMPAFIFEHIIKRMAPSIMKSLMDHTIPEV
UniProt O75556: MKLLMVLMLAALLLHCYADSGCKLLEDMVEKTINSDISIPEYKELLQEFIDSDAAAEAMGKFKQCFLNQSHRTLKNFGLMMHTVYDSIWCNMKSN
UniProt Q9HCY8: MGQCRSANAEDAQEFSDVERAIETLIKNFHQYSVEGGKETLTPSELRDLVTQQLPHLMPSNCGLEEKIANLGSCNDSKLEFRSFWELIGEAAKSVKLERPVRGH
UniProt Q6UWP8: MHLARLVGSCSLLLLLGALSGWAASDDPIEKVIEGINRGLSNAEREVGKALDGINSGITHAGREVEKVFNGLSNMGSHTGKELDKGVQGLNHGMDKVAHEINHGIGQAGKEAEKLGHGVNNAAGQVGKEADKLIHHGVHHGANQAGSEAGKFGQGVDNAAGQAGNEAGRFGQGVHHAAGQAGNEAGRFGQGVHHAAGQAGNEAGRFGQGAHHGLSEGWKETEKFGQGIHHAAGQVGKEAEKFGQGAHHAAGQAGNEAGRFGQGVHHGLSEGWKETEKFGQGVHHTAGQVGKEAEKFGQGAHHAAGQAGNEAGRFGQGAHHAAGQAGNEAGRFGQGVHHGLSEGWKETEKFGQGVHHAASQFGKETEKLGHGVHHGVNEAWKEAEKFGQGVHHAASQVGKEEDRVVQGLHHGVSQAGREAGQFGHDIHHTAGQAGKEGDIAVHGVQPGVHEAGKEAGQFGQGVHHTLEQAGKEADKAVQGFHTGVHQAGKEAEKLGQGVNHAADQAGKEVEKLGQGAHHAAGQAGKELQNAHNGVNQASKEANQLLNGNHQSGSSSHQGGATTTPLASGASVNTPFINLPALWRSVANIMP
UniProt Q7L3V2: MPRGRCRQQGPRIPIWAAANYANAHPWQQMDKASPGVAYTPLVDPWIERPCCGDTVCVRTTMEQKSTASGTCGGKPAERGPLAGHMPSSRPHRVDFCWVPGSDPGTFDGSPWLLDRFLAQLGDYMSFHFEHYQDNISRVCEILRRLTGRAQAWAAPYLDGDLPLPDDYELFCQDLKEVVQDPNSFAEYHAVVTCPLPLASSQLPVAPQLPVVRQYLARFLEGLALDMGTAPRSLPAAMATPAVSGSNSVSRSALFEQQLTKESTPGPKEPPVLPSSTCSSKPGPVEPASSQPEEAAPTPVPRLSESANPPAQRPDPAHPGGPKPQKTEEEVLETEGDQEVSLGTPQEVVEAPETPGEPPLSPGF
UniProt P35499, whole entry, looked up: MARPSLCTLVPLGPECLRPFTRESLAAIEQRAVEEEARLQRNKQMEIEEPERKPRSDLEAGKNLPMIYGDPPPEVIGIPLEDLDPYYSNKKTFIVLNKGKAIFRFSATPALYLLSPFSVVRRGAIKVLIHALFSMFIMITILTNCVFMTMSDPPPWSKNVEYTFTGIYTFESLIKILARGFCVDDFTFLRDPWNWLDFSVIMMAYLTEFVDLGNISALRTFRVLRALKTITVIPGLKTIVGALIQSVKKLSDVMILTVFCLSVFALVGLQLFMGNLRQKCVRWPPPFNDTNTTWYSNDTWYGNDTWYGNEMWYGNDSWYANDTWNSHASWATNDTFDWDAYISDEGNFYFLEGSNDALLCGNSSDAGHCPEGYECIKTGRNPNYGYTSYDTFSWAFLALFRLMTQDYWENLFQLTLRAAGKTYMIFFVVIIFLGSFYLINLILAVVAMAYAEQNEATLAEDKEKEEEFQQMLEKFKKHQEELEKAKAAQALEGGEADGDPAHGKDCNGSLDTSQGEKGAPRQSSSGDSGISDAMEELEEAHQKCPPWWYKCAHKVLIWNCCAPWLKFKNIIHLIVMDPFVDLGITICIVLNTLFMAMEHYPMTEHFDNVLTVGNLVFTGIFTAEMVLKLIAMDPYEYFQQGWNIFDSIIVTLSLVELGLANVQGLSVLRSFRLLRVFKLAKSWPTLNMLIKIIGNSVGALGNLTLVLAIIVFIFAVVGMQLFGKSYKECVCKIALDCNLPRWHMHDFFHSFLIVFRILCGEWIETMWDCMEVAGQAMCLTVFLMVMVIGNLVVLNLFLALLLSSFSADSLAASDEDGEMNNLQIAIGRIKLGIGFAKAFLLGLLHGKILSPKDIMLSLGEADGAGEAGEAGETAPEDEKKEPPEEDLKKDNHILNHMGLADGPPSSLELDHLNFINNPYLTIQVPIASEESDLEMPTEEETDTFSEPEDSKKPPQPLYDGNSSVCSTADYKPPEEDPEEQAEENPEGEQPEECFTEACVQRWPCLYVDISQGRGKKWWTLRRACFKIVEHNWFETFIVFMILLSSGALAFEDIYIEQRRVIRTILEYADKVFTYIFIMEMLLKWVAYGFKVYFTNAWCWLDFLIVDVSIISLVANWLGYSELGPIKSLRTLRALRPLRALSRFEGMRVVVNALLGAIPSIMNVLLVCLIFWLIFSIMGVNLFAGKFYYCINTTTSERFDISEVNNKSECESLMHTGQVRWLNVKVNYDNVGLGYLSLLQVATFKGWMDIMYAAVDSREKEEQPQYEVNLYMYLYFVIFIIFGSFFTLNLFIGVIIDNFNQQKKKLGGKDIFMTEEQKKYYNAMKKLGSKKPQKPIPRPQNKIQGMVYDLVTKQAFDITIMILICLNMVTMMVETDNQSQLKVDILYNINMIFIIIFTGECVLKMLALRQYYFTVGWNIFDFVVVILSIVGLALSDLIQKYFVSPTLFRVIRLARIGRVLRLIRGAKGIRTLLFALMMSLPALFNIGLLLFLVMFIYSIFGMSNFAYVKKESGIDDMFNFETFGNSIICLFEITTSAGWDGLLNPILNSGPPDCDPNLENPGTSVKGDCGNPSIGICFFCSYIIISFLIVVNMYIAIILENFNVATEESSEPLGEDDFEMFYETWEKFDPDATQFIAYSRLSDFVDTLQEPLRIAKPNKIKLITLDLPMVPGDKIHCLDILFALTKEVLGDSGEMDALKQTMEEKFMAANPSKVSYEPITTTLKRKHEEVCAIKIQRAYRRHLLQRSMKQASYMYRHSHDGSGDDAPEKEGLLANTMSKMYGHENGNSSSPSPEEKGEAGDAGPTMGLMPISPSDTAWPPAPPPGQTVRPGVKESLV
UniProt Q14160: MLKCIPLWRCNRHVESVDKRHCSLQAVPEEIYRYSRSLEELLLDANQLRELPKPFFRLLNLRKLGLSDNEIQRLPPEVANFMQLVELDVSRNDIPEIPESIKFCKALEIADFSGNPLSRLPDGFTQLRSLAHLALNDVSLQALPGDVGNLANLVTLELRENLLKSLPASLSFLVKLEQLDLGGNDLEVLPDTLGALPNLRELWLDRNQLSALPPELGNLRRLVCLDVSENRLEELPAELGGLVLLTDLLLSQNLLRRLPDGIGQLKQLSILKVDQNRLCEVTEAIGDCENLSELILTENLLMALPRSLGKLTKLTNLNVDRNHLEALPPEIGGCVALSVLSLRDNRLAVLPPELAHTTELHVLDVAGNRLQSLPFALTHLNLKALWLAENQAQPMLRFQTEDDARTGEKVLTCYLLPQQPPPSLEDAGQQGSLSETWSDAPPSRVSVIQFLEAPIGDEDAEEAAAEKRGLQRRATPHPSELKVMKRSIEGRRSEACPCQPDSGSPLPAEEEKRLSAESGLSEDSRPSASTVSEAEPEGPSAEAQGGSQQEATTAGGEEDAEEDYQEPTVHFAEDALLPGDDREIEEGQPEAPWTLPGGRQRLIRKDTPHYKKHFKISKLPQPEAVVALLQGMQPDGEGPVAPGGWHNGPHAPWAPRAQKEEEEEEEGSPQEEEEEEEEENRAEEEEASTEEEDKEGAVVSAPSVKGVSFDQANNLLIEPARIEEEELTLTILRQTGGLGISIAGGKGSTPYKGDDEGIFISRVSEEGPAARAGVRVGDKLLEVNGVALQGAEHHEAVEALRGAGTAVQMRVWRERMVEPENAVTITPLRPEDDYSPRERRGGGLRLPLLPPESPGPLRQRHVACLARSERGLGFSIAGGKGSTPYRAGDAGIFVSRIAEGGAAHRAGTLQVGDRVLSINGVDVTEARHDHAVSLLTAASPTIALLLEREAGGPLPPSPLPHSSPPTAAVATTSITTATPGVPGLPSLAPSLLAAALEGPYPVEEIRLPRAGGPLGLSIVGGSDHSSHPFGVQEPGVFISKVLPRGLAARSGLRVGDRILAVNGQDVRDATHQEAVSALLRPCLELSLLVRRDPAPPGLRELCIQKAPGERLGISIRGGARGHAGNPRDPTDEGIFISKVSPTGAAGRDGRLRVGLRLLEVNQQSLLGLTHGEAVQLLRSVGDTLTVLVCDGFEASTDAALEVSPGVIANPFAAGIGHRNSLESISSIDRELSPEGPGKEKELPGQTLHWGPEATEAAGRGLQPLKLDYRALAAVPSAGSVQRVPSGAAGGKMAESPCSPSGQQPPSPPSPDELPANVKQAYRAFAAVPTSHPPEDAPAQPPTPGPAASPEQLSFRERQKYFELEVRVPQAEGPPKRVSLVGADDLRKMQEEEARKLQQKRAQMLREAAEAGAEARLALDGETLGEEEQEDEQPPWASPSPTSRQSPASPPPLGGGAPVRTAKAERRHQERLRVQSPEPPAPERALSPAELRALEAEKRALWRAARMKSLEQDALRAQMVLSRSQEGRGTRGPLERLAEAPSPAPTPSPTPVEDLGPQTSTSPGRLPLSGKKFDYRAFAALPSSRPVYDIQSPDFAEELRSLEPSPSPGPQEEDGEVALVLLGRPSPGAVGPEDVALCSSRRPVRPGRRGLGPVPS
UniProt Q8IZE3: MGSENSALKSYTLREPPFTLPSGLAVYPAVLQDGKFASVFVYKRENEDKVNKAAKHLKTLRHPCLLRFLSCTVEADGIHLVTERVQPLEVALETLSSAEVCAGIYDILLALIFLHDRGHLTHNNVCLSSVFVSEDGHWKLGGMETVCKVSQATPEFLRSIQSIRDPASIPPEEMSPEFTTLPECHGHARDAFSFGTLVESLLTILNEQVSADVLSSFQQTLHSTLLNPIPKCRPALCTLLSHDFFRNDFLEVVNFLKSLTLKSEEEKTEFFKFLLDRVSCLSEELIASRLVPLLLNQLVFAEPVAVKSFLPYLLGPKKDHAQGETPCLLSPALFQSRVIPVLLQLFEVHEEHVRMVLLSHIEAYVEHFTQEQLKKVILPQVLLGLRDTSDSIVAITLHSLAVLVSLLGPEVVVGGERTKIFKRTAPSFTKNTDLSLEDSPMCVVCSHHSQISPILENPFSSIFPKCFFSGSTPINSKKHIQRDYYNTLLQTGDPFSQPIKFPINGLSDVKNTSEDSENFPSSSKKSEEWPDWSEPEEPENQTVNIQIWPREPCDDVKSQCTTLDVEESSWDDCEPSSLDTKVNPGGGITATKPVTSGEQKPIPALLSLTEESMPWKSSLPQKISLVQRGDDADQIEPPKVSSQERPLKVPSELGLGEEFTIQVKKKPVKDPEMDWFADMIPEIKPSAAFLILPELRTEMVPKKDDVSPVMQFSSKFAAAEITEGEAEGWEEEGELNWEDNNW
UniProt O14828: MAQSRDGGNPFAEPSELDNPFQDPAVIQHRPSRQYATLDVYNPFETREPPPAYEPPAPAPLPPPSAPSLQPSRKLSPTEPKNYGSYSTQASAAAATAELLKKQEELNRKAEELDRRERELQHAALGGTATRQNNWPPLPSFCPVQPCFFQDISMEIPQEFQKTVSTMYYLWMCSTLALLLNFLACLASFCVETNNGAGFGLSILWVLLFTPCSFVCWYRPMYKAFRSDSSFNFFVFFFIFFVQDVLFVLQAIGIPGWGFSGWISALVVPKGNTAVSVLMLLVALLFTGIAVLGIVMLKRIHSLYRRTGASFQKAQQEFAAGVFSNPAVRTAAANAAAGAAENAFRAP

The list shows a part of the results.

Compound in the assay: FC(F)(F)c1ccc(/C=C/c2nc(COc3ccc(CCCCn4ccnn4)cc3)co2)cc1 [mubritinib]
The assay can be described thus: log2 fold change, soluble protein after heating vs DMSO (PISA); higher = thermal stabilisation; K562 cells, 10 uM, 30 min; active = over 0.2 and 3.5 SD of the protein, either way, in both replicates (recomputed). Put shortly:
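K562 cells at 2×10^6 cells/mL were treated for 30 min with 10 μM compound, and aliquots were heated for 3 min over 48°C-58°C before pooling. Extraction used PBS with 0.5% NP-40 at 4°C, and soluble protein was the supernatant after 21,000xg for 90 min, measured by TMTpro 16plex LC-MS/MS with channel sums equalised. Thermal stability values, relative to control samples and from duplicates, are log2 fold changes.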
In the case of S100A16 (UniProt Q96FQ6), the log2 fold change was inactive: -0.115.
As for SAYSD1 (UniProt Q9NPB0), the log2 fold change was inactive: -0.033.
With S100A2 (UniProt P29034) the figure was inactive: 0.1.
With RSL24D1 (UniProt Q9UHA3) the figure was inactive: -0.085.
For the target SDCBP isoform 2 (UniProt O00560), the log2 fold change is inactive: 0.033.
With SCGB2A1 (UniProt O75556) the figure was inactive: 0.041; with S100A14 (UniProt Q9HCY8), inactive: -0.098.
With SBSN (UniProt Q6UWP8) the figure was inactive: -0.495; with RTL10 (UniProt Q7L3V2), inactive: -0.607; with SCN4A (UniProt P35499), inactive: 0.064.
In the case of SCRIB isoform 3 (UniProt Q14160), the log2 fold change was inactive: -0.058.
On to SCYL3 isoform 2 (UniProt Q8IZE3), for which the log2 fold change was inactive: 0.032.
With SDHB, A0A087WXX8 the figure was inactive: -0.045; with SCAMP3 isoform 2 (UniProt O14828), inactive: 0.015.
